Results are given in words; binding and its absence hold for the method and conditions named. Binding seen in cells or lysates may run through a third protein. Some entries that bind do so weakly or less than the wild type.
Molecular target: E2F1, endogenous in ACHN cells (human (endogenous in ACHN)) (UniProt Q01094)
Assay: co-IP; endogenous proteins in ACHN cells; 1 ug target antibody on protein A/G magnetic beads, incubated with cell lysate overnight at 4°C, washed with IP buffer, Western blotting

The chains behind the UniProt entries cited, without tags or fusion partners.
UniProt Q01094: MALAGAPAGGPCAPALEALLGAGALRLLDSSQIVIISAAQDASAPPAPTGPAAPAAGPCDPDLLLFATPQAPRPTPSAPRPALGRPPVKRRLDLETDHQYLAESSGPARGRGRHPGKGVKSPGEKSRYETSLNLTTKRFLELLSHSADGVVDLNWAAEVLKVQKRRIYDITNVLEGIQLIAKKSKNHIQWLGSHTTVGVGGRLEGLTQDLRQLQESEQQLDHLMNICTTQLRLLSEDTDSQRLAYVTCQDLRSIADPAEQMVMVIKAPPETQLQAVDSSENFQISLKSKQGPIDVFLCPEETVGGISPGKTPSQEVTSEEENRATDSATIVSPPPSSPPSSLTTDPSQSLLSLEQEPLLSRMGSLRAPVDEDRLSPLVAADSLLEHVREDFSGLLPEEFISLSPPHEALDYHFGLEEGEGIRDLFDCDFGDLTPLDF

binding: binds
B1: Proline rich 11 (PRR11), endogenous in ACHN cells (protein, UniProt Q96HE9 1-360)
chain: MPKFKQRRRKLKAKAERLFKKKEASHFQSKLITPPPPPPSPERVGISSIDISQSRSWLTSSWNFNFPNIRDAIKLWTNRVWSIYSWCQNCITQSLEVLKDTIFPSRICHRELYSVKQQFCILESKLCKLQEALKTISESSSCPSCGQTCHMSGKLTNVPACVLITPGDSKAVLPPTLPQPASHFPPPPPPPPLPPPPPPLAPVLLRKPSLAKALQAGPLKKDGPMQITVKDLLTVKLKKTQSLDEKRKLIPSPKARNPLVTVSDLQHVTLKPNSKVLSTRVTNVLITPGKSQMDLRKLLRKVDVERSPGGTPLTNKENMETGTGLTPVMTQALRRKFQLAHPRSPTPTLPLSTSSFDEQN

Source: article PMC8525590
